{"source": "PubChem BioAssay AID504744 (Drosophila RNAi Screening Center, 2011)", "assay": "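Uncover factors, including feedback loops, that control dAkt activation in fly cells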 (primary screen)", "cells": "Drosophila Kc167 cells", "knock-down reagent": "long dsRNA against Drosophila genes, 250 ng dsRNA per well of a 384-well plate", "time to read-out": "3 days of knock-down, then overnight serum-free starvation before stimulation", "treatment": "bovine insulin at 387 nM for 10 minutes after 12 h without serum", "read-out": "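In-cell antibody fluorescence for phospho-dAkt in each well over DNA-dye signal, with log2 residuals expressed as z-scores adjusted for cell count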", "hit rule": "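Hit in the insulin screen when the two-replicate mean z-score is more extreme than plus or minus 2.5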", "note": "In all, the deposit lists about 23,000 reagents; this is an unselected part of those with a known target gene and a result. In the full data, 98 (0.43%) were called active. 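Only hit calls are given; the phospho-dAkt signals, z-scores and hit direction were not deposited.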 A plus sign joins genes that one reagent is predicted to hit."}
{"gene": "Syx5", "Call": "inactive"}
{"gene": "mahj", "Call": "inactive"}
{"gene": "GstD11", "Call": "inactive"}
{"gene": "thoc6", "Call": "inactive"}
{"gene": "kappaTry", "Call": "inactive"}
{"gene": "CG14854", "Call": "inactive"}
{"gene": "CG3902", "Call": "inactive"}
{"gene": "mahe", "Call": "inactive"}
{"gene": "Gale", "Call": "inactive"}
{"gene": "IntS6", "Call": "inactive"}
{"gene": "Edg78E", "Call": "inactive"}
{"gene": "MESR3", "Call": "inactive"}
{"gene": "Ccdc39", "Call": "inactive"}

Next part; the last 2 above are carried over.
{"gene": "MESR3", "Call": "inactive"}
{"gene": "Ccdc39", "Call": "inactive"}
{"gene": "CG2765", "Call": "inactive"}
{"gene": "RPA2", "Call": "inactive"}
{"gene": "CG11779", "Call": "inactive"}
{"gene": "His2B:CG33894 + His2B:CG33872 + His2B:CG33902 + 20 more", "Call": "inactive"}
{"gene": "CG33303", "Call": "inactive"}
{"gene": "speck", "Call": "inactive"}
{"gene": "CG2157", "Call": "inactive"}
{"gene": "cact", "Call": "inactive"}
{"gene": "Nca", "Call": "inactive"}
{"gene": "PpY-55A", "Call": "inactive"}
